The text below walks through data of paper PMC4838387, “PolDIP2 interacts with human PrimPol and enhances its DNA polymerase activities”.

Amino acid sequences for entries named in this document (tags omitted). A change or cut given only in a name is not applied to a line headed by its entry.
UniProt Q9Y2S7: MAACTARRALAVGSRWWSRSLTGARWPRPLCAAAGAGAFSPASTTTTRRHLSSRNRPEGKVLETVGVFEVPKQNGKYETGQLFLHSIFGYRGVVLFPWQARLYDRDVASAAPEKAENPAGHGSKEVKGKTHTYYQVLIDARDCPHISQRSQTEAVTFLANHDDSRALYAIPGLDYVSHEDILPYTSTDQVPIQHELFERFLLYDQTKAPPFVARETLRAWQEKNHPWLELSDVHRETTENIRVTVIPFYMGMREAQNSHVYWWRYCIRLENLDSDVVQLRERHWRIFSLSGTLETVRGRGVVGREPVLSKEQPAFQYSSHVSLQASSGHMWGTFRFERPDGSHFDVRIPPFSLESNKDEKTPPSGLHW

The target of assay [1] is T1, PrimPol^24–354 (human) (UniProt Q96LW4).
T1 sequence: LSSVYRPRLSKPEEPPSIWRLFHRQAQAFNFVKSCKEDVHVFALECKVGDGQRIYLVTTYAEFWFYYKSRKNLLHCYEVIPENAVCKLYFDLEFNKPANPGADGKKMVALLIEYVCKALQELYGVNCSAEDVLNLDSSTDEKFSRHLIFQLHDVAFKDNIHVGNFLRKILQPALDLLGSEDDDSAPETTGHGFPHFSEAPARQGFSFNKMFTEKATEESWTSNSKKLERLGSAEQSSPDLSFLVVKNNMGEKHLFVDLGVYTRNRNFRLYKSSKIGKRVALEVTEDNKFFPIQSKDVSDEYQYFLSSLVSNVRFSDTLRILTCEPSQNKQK
The assay can be described thus: native gel or EMSA; 20 nM labelled 20/97-mer primer/template DNA, 10 mM Bis-Tris-propane-HCl pH 7.0, 10 mM MgCl2, 100 µM DTT; 5% native polyacrylamide gel; complex seen on the DNA (super-shifted complex); both purified. On the technique in general: Mobility shift assays separate free from complexed probe on a gel.

Assay [2] has as its target T1, PrimPol^24–354 (human). The assay can be described thus: cross-linking; BS3 cross-linker (1:1 to 20:1 crosslinker:protein) on equimolar untagged PolDIP2 and PrimPol 24-354, 50 mM HEPES pH 7.5, 150 mM NaCl, 10% glycerol, on ice; band of the weight of a 1:1 complex excised, digested, nano-LC-MS, StavroX; both purified.

Results are given in words; binding and its absence hold for the method and conditions named. A result given as binding can be weak or reduced; the word gives no strength.

For the substance “untagged PolDIP2 (polymerase δ-interacting protein 2) (from UniProt Q9Y2S7)”, the binding entry in assay [1] and in assay [2] was “binds” each time.
